Values from PubChem BioAssay AID1259254 (NCATS, 2017).
In all, the deposit lists about 59,000 reagents; shown is an unselected part. About 1,550 of all reagents (2.6%) were called active. 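G2 share is only a proxy for re-replication; each gene was hit by three separate siRNAs, and active genes were retested.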 Raw values vary from plate to plate and are shown uncorrected. No sequences are given here. The record does not give: the amount of reagent.

- Test: 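Finding genes that stop cells copying their DNA twice in one cycle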 (primary screen)
- Cells: human HCT116 colorectal cancer cells
- Reagent: single siRNA against human genes
- Duration: 3 days
- Detection: 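Imaged Hoechst DNA stain sorts each cell into a cycle phase by DNA amount; per plate, G2 fraction set to 0% for non-targeting and 100% for GMNN siRNA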
- Scale: G2 robust z-score and G2 cells, % of GMNN control: higher = more G2 cells, more excess DNA replication; raw share of cells in G2: higher = larger share of cells with G2 DNA content
- Rule for the call: 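An siRNA counts as active if its G2 robust z-score lies at least 5 MADs above the screen median; here such calls match roughly 38% of GMNN control or more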

| Target gene | PubChem SID | G2 robust z-score | G2 cells, % of GMNN control | raw share of cells in G2 (%) | activity call |
| --- | --- | --- | --- | --- | --- |
| MGST2 | SID160777231 | -0.686 | -1.86 | 4.73 | inactive |
| MGST2 | SID160777233 | -0.0786 | 2.41 | 6.29 | inactive |
| MGST2 | SID160777234 | -1.25 | -5.8 | 1.28 | inactive |
| EEF1B2P5 | SID160733441 | -0.134 | 2.03 | 3.81 | inactive |
| EEF1B2P5 | SID160768159 | 1.13 | 10.9 | 7.83 | inactive |
| EEF1B2P5 | SID160768161 | 0.237 | 4.64 | 5.17 | inactive |
| BBOF1 | SID160734976 | -0.721 | -2.11 | 1.8 | inactive |
| BBOF1 | SID160750074 | -0.469 | -0.33 | 4.31 | inactive |
| BBOF1 | SID160750075 | 0.446 | 6.1 | 6.97 | inactive |
| FNDC7 | SID160760046 | -0.463 | -0.293 | 3.5 | inactive |
| FNDC7 | SID160760047 | -0.284 | 0.972 | 3.28 | inactive |
| FNDC7 | SID160760048 | 2.08 | 17.6 | 8.33 | inactive |
| MANBAL | SID160747251 | 0.908 | 9.36 | 8.66 | inactive |
| MANBAL | SID160747252 | 1.21 | 11.4 | 9.74 | inactive |
| MANBAL | SID160747253 | 1.27 | 11.9 | 5.85 | inactive |
| PIK3CD | SID160714344 | -0.555 | -0.937 | 5.3 | inactive |
| PIK3CD | SID160714346 | -0.436 | -0.1 | 3.99 | inactive |
| PIK3CD | SID160731418 | -0.211 | 1.48 | 5.91 | inactive |
| PTPRC | SID160715389 | -0.546 | -0.876 | 4.51 | inactive |
| PTPRC | SID160731620 | -0.933 | -3.6 | 3.22 | inactive |
| PTPRC | SID160731621 | -0.358 | 0.449 | 3.63 | inactive |
| KCNG2 | SID160724341 | -0.224 | 1.39 | 5.8 | inactive |
| KCNG2 | SID160724342 | -0.984 | -3.96 | 3.44 | inactive |
| KCNG2 | SID160724343 | 2.62 | 21.4 | 12.7 | inactive |
| USP27X | SID160766300 | 0.64 | 7.47 | 8.16 | inactive |
| USP27X | SID160766301 | 1.52 | 13.6 | 9.74 | inactive |
| USP27X | SID160766302 | -0.627 | -1.44 | 3.37 | inactive |
| ELOCP3 | SID160733881 | 0.491 | 6.42 | 5.02 | inactive |
| ELOCP3 | SID160769242 | 2.6 | 21.2 | 11.7 | inactive |
| ELOCP3 | SID160769243 | -1.04 | -4.38 | 1.7 | inactive |
| TAX1BP1 | SID160721063 | 4.04 | 31.4 | 19 | inactive |
| TAX1BP1 | SID160721064 | 0.661 | 7.62 | 6.92 | inactive |
| TAX1BP1 | SID160721065 | 2.25 | 18.8 | 9.99 | inactive |
| H3Y2 | SID160725090 | 1.41 | 12.9 | 8.42 | inactive |
| H3Y2 | SID160725091 | -0.874 | -3.18 | 1.87 | inactive |
| H3Y2 | SID160725092 | -0.58 | -1.11 | 3.74 | inactive |
| PIWIL4 | SID160758064 | 0.141 | 3.96 | 5.15 | inactive |
| PIWIL4 | SID160758065 | 1.2 | 11.4 | 6.44 | inactive |
| PIWIL4 | SID160758066 | 1.58 | 14.1 | 7.98 | inactive |
| CAVIN4 | SID160764945 | -0.941 | -3.66 | 2.73 | inactive |
| CAVIN4 | SID160764946 | 3.23 | 25.7 | 14.5 | inactive |
| CAVIN4 | SID160764947 | 2.25 | 18.8 | 11.7 | inactive |
| PCDHA3 | SID160744883 | -0.121 | 2.12 | 5.22 | inactive |
| PCDHA3 | SID160744884 | -0.62 | -1.4 | 5.82 | inactive |
| PCDHA3 | SID160744885 | 3.02 | 24.2 | 13.1 | inactive |
| ZNF182 | SID160719028 | -0.629 | -1.46 | 3.04 | inactive |
| ZNF182 | SID160719029 | 0.964 | 9.75 | 10.3 | inactive |
| ZNF182 | SID160719030 | -0.029 | 2.76 | 4.5 | inactive |
| KYNU | SID160721190 | 0.102 | 3.69 | 6.03 | inactive |
| KYNU | SID160721191 | 3.55 | 28 | 15.1 | inactive |
| KYNU | SID160721192 | -0.0147 | 2.86 | 5.84 | inactive |
| OR2M5 | SID160756566 | -0.602 | -1.27 | 3.7 | inactive |
| OR2M5 | SID160756567 | -0.564 | -0.998 | 2.79 | inactive |
| OR2M5 | SID160756568 | -0.341 | 0.569 | 2.79 | inactive |
| PITX1 | SID160714372 | 0.149 | 4.01 | 6.1 | inactive |
| PITX1 | SID160723980 | -0.944 | -3.68 | 3.2 | inactive |
| PITX1 | SID160723981 | 0.14 | 3.95 | 4.69 | inactive |
| UBQLN1 | SID160739428 | 1.44 | 13.1 | 8.85 | inactive |
| UBQLN1 | SID160739429 | -0.875 | -3.19 | 3.34 | inactive |
| UBQLN1 | SID160739430 | 2.28 | 19 | 9.24 | inactive |
| ZNF462 | SID160746861 | 0.0275 | 3.16 | 3.91 | inactive |
| ZNF462 | SID160746862 | -0.787 | -2.57 | 4.75 | inactive |
| ZNF462 | SID160746863 | -0.832 | -2.89 | 2.73 | inactive |
| CTDSP2 | SID160725453 | 0.353 | 5.45 | 6.57 | inactive |
| CTDSP2 | SID160725460 | 1.02 | 10.1 | 7.36 | inactive |
| CTDSP2 | SID160725469 | 0.718 | 8.02 | 5.91 | inactive |
| MTF1 | SID160777522 | 0.565 | 6.94 | 5.48 | inactive |
| MTF1 | SID160777523 | -0.233 | 1.32 | 5.87 | inactive |
| MTF1 | SID160777524 | 1.06 | 10.4 | 9.61 | inactive |

Laid out differently: 9 of the entries above.
{"Target gene":"ELOCP3","PubChem SID":"SID160769242","G2 robust z-score":2.6,"G2 cells, % of GMNN control":21.2,"raw share of cells in G2 (%)":11.7,"activity call":"inactive"}
{"Target gene":"ELOCP3","PubChem SID":"SID160769243","G2 robust z-score":-1.04,"G2 cells, % of GMNN control":-4.38,"raw share of cells in G2 (%)":1.7,"activity call":"inactive"}
{"Target gene":"TAX1BP1","PubChem SID":"SID160721063","G2 robust z-score":4.04,"G2 cells, % of GMNN control":31.4,"raw share of cells in G2 (%)":19,"activity call":"inactive"}
{"Target gene":"TAX1BP1","PubChem SID":"SID160721064","G2 robust z-score":0.661,"G2 cells, % of GMNN control":7.62,"raw share of cells in G2 (%)":6.92,"activity call":"inactive"}
{"Target gene":"TAX1BP1","PubChem SID":"SID160721065","G2 robust z-score":2.25,"G2 cells, % of GMNN control":18.8,"raw share of cells in G2 (%)":9.99,"activity call":"inactive"}
{"Target gene":"H3Y2","PubChem SID":"SID160725090","G2 robust z-score":1.41,"G2 cells, % of GMNN control":12.9,"raw share of cells in G2 (%)":8.42,"activity call":"inactive"}
{"Target gene":"H3Y2","PubChem SID":"SID160725091","G2 robust z-score":-0.874,"G2 cells, % of GMNN control":-3.18,"raw share of cells in G2 (%)":1.87,"activity call":"inactive"}
{"Target gene":"H3Y2","PubChem SID":"SID160725092","G2 robust z-score":-0.58,"G2 cells, % of GMNN control":-1.11,"raw share of cells in G2 (%)":3.74,"activity call":"inactive"}
{"Target gene":"PIWIL4","PubChem SID":"SID160758064","G2 robust z-score":0.141,"G2 cells, % of GMNN control":3.96,"raw share of cells in G2 (%)":5.15,"activity call":"inactive"}
